Measurements as given in article PMC7383231, “Pseudo-RNA-Binding Domains Mediate RNA Structure Specificity in Upstream of N-Ras”.
No constants are given. Whether binding was seen depends on the method and setting. In cells and extracts the contact can be indirect. A yes stands for co-enrichment or nearness to the bait. Other partners may have been found. Where a sequence is shown, tags or fusion partners need not be part of it.

By UniProt entry, the sequences of proteins in these tests, tags left out. Where a name states a change or a piece, a line headed by the entry shows the natural chain unless it says otherwise.
UniProt P19109: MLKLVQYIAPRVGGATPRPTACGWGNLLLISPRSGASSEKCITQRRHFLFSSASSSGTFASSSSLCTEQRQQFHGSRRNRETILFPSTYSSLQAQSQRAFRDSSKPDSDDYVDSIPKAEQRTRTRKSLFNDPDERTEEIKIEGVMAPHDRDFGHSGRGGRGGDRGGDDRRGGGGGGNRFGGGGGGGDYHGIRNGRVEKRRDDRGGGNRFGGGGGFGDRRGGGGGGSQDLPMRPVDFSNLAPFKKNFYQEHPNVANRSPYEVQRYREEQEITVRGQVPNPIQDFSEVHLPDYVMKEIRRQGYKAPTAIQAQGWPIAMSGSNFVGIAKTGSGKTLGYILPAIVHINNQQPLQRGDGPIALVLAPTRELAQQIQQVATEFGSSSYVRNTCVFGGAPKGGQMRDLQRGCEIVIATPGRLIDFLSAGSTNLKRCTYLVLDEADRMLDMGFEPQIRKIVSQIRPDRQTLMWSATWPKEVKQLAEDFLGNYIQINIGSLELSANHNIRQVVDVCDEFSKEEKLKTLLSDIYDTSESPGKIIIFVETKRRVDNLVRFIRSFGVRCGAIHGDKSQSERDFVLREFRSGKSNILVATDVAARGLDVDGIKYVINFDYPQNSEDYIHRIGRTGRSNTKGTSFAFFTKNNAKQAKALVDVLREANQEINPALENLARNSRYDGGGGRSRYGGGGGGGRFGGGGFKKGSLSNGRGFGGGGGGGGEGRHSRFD
UniProt Q9V3E7: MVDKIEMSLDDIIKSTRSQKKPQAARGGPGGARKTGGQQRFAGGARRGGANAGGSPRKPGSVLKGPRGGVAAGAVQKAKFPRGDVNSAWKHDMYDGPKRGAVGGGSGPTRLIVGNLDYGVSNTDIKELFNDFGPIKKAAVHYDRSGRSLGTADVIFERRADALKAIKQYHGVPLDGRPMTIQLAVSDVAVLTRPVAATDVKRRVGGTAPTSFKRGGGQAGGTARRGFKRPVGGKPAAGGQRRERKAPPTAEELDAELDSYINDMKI
UniProt Q32KD4: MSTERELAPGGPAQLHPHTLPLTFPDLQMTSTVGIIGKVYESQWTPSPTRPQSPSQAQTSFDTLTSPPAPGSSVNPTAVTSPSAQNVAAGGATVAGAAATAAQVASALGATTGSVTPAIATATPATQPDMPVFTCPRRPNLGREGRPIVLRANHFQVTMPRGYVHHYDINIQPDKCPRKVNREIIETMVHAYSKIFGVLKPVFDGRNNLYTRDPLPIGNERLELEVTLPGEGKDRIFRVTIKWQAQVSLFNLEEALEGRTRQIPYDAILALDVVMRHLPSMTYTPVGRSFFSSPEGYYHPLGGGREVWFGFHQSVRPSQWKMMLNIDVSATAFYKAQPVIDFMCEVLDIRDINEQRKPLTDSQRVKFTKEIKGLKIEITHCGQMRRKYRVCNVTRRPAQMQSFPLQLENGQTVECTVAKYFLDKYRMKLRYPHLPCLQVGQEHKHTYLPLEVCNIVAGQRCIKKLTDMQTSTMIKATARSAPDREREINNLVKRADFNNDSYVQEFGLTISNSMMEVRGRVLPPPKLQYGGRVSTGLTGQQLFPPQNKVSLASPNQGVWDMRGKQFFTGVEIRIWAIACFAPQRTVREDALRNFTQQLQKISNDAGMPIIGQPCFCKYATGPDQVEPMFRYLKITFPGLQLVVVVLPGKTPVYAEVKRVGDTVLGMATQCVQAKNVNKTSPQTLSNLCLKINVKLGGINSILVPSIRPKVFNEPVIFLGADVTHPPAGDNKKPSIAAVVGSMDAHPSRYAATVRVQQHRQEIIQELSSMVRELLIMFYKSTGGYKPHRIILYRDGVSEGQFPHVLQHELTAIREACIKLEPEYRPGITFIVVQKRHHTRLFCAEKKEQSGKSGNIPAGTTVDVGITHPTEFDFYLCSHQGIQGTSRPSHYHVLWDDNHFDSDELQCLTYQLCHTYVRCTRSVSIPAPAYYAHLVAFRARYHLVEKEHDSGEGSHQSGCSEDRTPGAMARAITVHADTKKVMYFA

T1: Drosophila Upstream of N-Ras (Unr), full-length wild type, V5-tagged (Drosophila) (UniProt B7Z0E2)
T1 sequence: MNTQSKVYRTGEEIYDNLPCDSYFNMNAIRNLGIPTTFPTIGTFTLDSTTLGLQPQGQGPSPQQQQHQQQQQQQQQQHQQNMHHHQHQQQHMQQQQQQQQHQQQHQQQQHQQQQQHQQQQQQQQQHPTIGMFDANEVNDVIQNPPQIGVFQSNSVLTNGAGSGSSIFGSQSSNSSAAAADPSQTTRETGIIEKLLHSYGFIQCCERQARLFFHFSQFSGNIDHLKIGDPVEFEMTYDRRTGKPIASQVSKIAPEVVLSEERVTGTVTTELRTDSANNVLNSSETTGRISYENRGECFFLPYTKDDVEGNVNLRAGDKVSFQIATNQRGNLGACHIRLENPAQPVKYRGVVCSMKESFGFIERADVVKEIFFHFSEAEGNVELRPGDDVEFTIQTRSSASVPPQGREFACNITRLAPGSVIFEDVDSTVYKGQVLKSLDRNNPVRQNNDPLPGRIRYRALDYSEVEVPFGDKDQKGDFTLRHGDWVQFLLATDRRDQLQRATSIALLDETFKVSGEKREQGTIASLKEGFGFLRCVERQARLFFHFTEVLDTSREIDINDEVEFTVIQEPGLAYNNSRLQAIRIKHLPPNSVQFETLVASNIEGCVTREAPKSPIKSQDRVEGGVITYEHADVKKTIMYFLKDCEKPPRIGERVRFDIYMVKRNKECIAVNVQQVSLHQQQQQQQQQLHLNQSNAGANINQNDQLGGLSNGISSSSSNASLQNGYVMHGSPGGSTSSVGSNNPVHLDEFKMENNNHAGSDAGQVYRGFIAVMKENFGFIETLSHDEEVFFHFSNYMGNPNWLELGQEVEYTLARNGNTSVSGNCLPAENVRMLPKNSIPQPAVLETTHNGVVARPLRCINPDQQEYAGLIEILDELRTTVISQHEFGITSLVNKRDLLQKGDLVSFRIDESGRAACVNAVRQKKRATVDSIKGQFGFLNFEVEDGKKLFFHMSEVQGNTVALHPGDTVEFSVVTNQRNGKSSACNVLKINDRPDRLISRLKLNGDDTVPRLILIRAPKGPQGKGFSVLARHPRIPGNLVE

B1: Nito (protein, UniProt Q7KMJ6 1-793)
chain: MSSHRDGAGADRITIKIHNMKRSASRSPGPASRSSLSRNSRSMGRGYDNGSGVPGDSPERLSPERMRRRLDRSPSRYGSPHREPYMRGPPPAERPAGYKVLCVSALPPKAPDDFIEETLYREYKKFGDFSVRLAHDLDERVAYVCFRTPEDAREAKHHKPRLIIYDKMAIVEPVYKSTTRPEYRPRGHSMSPPDYERYHYSRSPMGQGVPLDHRRPPIDPYDRYGPPHMHPHAVHPRDYRPLHHDYPHPPRGPPLHRGGHPHHLHGHAPPHQYAPMRPLAPRPHAPYEKPESKKDKFPNYLHHVQPEDDPLSTRTLFAGNLEVTIADDELRRIFGKYGVVDDIDIKRPPPGTGNAFAFVRYQNLDMAHRAKIELSGQYIGKFQCKIGYGKVTPATRMWIGGLGAWTSVTQLEREFDRFGAIKKIEYQKGEPYAYIQYETVEAATAAVKEMRGFPLGGPERRLRTDFAELPGATPAAPFKSSKPPYDESALEYRRPEYDPYYEESAAYAPRGGYSPYPPRGGYRGRGGYRGRGRGMYHYHNDVHRPPHPGSLAGSSSSVPPPGGVEDEWRRPPGESYDRGARSSSREPGVERSRSRSPLKRARSPGSDSDTSTRRNDALASASTVPDVARKCSTVWTGALILKSSLFPAKFHLTDGDTDIVESLMRDEEGKHNLRITQRLRLDPPKLDDVQKRIASSSSHAIFMGLAGSTNDTNCDDASVQTRPLRNLVSYLKQKEAAGVISLLNKETEATGVLYAFPPCDFSTELLKRTCHSLTEEGLKEDHLVIVVVRGGTA
B2: Edc3 (protein, UniProt Q9VVI2 1-680)
chain: MGPTDQDWIGCAVSIACDEVLGVFQGLIKQISAEEITIVRAFRNGVPLRKQNAEVVLKCTDIRSIDLIEPAKQDLDGHTAPPPVVNKPTPVKLPHFSNILGKQQQLQLQQQQQQLQLQQQQKQQFQEQEREQDLPSTPRSRANDNGRVAAGGASSSSGPRGNFNSALSDKMHQLKLIETNGSNGTLRTPQTSRASSAQQQPQISTTPNSVAAFFGNMIPPKVEVKLGSYVSNTRESYCSSSGDSGEATGLSLGSSKPIDIVSNGDGFYKQTAASSYGNTNGNVRRNGNANNNGNGTGNGSYTNGNGNGNGKNKRNRVRRESSMRQQQVQLTFGSEADDPLIHEDFDFEGNLALFDKQAIWDDIESTTQKPDVVRHIVNNHHHKPEQKYRHDENILASKPLQLRQIESMFGGSQDFVTDDGLIIPTIPAYVRNKIEISADKAGLSLQRQIDILARGASDLAITLLGGARRLTPANNHQWPKIAIICDGGKNMRTINIGAATGRQLASHGLTVLLYVEQAKLLEQNSSSPEISLFKATDNVIVHSVDALPTPDLVILSTNTANLSDAIRKWLSVNRASVLAIDPPPCGINEVAIKYSILPILPLNGISTATTSSSSSAAATPTPIASTSAAASATKSAASTNNCGKLYLCNLGIPDKFYRDCGIKYKSPYGHKYVIPIHSKD
B3: Upf1 (protein, UniProt Q9VYS3 1-1180)
chain: MSVDTYAPSSALSFLDMDDNELLPGADTQPTQYDYRDFTMPSTSQSQTQNDQLEIAQRCSAGDSHPRLASITNDLADLQFEEEDDEPGSSYVKELPPHACKYCGIHDPATVVMCNNCRKWFCNGRGSTSGSHIINHLVRAKHREVTLHGEGPLGETILECYSCGVRNVFVLGFIPAKADSVVVLLCRQPCAAQNSLKDMNWDQEQWKPLIADRCFLAWLVKQPSEQGQLRARQISAAQINKLEELWKENIEATFQDLEKPGIDSEPAHVLLRYEDGYQYEKTFGPLVRLEAEYDQKLKESATQENIEVRWDVGLNKKTIAYFTLAKTDSDMKLMHGDELRLHYVGELYNPWSEIGHVIKVPDNFGDDVGLELKSSTNAPVKCTSNFTVDFIWKCTSFDRMTRALCKFAIDRNSVSNFIYSRLLGHGRADSNDEVLFRGPQPKLFSAPHLPDLNRSQVYAVKHALQRPLSLIQGPPGTGKTVTSATIVYQLVKLHGGTVLVCAPSNTAVDQLTEKIHRTNLKVVRVCAKSREAIDSPVSFLALHNQIRNMETNSELKKLQQLKDETGELSSADEKRYRNLKRAAENQLLEAADVICCTCVGAGDGRLSRVKFTSILIDESMQSTEPECMVPVVLGAKQLILVGDHCQLGPVVMCKKAARAGLSQSLFERLVVLGIRPFRLEVQYRMHPELSQFPSNFFYEGSLQNGVCAEDRRLKLDFPWPQPERPMFFLVTQGQEEIAGSGTSFLNRTEAANVEKITTRFLKAGIKPEQIGIITPYEGQRAYLVQYMQYQGSLHSRLYQEIEIASVDAFQGREKDIIIMSCVRSNERQGIGFLNDPRRLNVALTRAKFGIIIVGNPKVLAKQQLWNHLLNFYKDRKVLVEGSLNNLKESLIHFQKPKKLVNSMNIGAHFMSTIIADAKEVMVPGSIYDRSGGYGQGRQMVGQSMNGGQYGGSGGGPYGNSPLGYGTPSSNSMVGFGLGNGGNGAAGGNNNFGGAGPSWAAAHLHHDSIGYISNEHGAAALGNMPVPVGMFMNMSNIPPRFYNQHQQAIMAVKQNRAIQQQTGNFSPGNSGPGVTGVGVGRSATPGGNKKTNKLGKSRVTGGGTGGAPLTQGSSVCNAAPYSQHPMPLSLQMTQPSGFALSQQPELSQDFGQISQMDGLLSQDVAFNASGERSLNQFSQPY
B4: Hrb27c (Hrp48) (protein, UniProt P48809 1-421)
chain: MEEDERGKLFVGGLSWETTQENLSRYFCRFGDIIDCVVMKNNESGRSRGFGFVTFADPTNVNHVLQNGPHTLDGRTIDPKPCNPRTLQKPKKGGGYKVFLGGLPSNVTETDLRTFFNRYGKVTEVVIMYDQEKKKSRGFGFLSFEEESSVEHVTNERYINLNGKQVEIKKAEPRDGSGGQNSNNSTVGGAYGKLGNECSHWGPHHAPINMMQGQNGQMGGPPLNMPIGAPNMMPGYQGWGTSPQQQQYGYGNSGPGSYQGWGAPPGPQGPPPQWSNYAGPQQTQGYGGYDMYNSTSTGAPSGPSGGGSWNSWNMPPNSAGPTGAPGAGAGTATDMYSRAQAWATGGPSTTGPVGGMPRTGPGNSASKSGSEYDYGGYGSGYDYDYSNYVKQEGASNYGAGPRSAYGNDSSTQPPYATSQAV

target: T1, Drosophila Upstream of N-Ras (Unr), full-length wild type, V5-tagged (Drosophila); experiment: affinity purification with mass spectrometry; anti-V5 immunoprecipitation (protein A/G magnetic beads) of V5-tagged Unr from lysates of transfected SL2 cells after depletion of endogenous Unr; cells UV cross-linked; no RNase treatment; TMT quantitative MS; n = 3; empty vector as control

binding	Molecule
binds	Imp
binds	Rm62 (from UniProt P19109 1-719)
binds	Ref1 (from UniProt Q9V3E7)
binds	Ago1 (from UniProt Q32KD4 1-984)
binds	Rump
binds	B1
binds	B2
binds	B3
binds	B4
